The values that follow are results of earlier work, collected in patent EP0343268A1, “Pharmaceutical composition and process for preparing the same” (BIOGAL GYOGYSZERGYAR, priority 1988, dated 1989).

For the data set the following is noted: in the presence of sulfhydryl-containing compounds, particularly acetylcysteine; cited from earlier work.

Consider `CC1=C(C(=O)O)N2C(=O)[C@@H](NC(=O)[C@H](N)c3ccccc3)[C@H]2SC1` [cephalexin], for which the “absorption from the stomach” value is given as “certain but not significant extent of retardation”.
